The list does not hold the whole screen: its compounds were picked by chemical class. Not every dose and run of a compound is shown. T/C is the treated group as % of the vehicle group. Schedule codes are those of the source, taken here to give the interval after Q, in days (D) or hours (H), and the number of doses after X. Some entries give survivors of the animals treated and no T/C: the source files T/C as zero there, which appears to mark a toxic dose or a test without result, not a measured value. Counts of survivors are from the toxicity check, whose day is not always given; animals may have died later.
System: B6C3F1 mice, colon carcinoma 38 s.c., T/C
Test: NCI In Vivo Anticancer Drug Screen. Data for tumor model Colon Carcinoma 38 (subcutaneous) in B6C3F1 mice
Conditions: T/C endpoint: median tumor weight (est.), schedule: Q07DX002 (ip), vehicle: water, higher T/C = larger tumour; for T/C: evaluated on day 20
Experimental: The antitumor activity of compounds was measured in mice bearing transplantable tumors. Survival or tumor size were measured and the results are expressed as the measurement made in the treated group (T) divided by the measurement made in the vehicle treated control group (C). The tumor model used in this assay is Colon Carcinoma 38 (subcutaneous) in B6C3F1 mice

NC1CCCCC1.NP(=O)(O)N(CCCl)CCCl
T/C (dose: 50.0 mg/kg/injection): 40 % of control
T/C (dose: 100.0 mg/kg/injection): 7 % of control
survivor count (dose: 200.0 mg/kg/injection): 0 of 10 on day 20
survivor count (dose: 400.0 mg/kg/injection): 0 of 10 on day 20
